For test [1], the target named is T1, Chromatin-Linked Adapter for MSL Proteins (CLAMP) (D. melanogaster (endogenous in S2 and Kc cells)) (UniProt Q9V9N4).
T1 sequence: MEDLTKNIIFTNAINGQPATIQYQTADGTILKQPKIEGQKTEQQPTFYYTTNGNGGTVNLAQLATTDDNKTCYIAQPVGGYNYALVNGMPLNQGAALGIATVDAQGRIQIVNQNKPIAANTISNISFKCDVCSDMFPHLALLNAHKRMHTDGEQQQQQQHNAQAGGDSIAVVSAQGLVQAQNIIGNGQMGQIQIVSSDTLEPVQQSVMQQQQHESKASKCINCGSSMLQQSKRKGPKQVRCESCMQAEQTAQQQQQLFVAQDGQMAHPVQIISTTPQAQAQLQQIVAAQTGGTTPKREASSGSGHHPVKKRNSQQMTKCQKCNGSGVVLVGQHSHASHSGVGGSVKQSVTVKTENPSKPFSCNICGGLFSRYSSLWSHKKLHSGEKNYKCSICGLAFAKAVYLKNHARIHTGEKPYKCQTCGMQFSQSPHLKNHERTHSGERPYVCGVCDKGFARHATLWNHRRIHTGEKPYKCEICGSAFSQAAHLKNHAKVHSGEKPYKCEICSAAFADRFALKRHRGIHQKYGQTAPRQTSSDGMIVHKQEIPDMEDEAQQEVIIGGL
Kind of test: affinity purification with mass spectrometry; non-crosslinked; anti-CLAMP antibody coupled to magnetic Dynabeads, nuclear extract of S2 (male) and Kc (female) cells, 1 hour at 4°C, washes with 50mM Tris, 500mM NaCl, 0.1% NP-40; IgG control; two biological replicates per cell type.

Sequences of proteins named here, by UniProt entry; tags and fusion partners are left off. A change or cut given only in a name is not applied to a line headed by its entry.
UniProt P08985: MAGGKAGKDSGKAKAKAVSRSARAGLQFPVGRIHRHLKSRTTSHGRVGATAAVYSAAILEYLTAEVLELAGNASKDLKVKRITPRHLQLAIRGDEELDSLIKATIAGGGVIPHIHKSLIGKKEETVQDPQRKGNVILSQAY
UniProt P21187: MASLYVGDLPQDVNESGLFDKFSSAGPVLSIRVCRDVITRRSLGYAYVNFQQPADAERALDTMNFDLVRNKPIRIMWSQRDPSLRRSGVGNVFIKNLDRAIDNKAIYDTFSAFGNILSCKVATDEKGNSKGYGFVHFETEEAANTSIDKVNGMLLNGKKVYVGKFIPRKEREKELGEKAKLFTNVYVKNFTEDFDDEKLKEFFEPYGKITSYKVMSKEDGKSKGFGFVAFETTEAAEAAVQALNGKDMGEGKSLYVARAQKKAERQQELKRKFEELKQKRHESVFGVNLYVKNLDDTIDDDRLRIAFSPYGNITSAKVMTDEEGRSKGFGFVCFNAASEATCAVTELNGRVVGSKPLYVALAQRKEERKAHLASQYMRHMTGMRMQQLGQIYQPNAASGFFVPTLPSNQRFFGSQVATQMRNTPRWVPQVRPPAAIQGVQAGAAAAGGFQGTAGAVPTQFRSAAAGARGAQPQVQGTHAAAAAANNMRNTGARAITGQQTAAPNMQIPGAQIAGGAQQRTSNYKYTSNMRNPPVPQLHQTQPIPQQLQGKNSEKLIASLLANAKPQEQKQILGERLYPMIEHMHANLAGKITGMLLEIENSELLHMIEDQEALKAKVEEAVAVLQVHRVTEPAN
UniProt Q26365: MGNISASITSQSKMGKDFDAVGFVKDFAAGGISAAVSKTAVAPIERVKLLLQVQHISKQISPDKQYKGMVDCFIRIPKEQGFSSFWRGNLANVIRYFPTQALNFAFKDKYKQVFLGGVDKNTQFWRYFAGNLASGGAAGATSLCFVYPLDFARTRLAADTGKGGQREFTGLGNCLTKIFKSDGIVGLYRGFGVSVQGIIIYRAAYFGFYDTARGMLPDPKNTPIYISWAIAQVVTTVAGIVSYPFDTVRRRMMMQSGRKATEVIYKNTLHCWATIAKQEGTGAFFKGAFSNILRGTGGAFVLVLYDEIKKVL

Test [2] deals with T1, Chromatin-Linked Adapter for MSL Proteins (CLAMP) (D. melanogaster (endogenous in S2 and Kc cells)). The experiment in a line: affinity purification with mass spectrometry; ChIP-MS: nuclei of S2 cells cross-linked with 1% formaldehyde, sonicated solubilized chromatin, anti-CLAMP antibody overnight at 4°C, Protein A agarose beads; IgG control; peptides detected in one of two S2 replicates.

These are yes or no findings as the source states them, for the method shown. In cells and extracts the contact can be indirect. These calls come from enrichment with a bait or labelling near it, and not all partners need be listed.

For the molecule “Histone H2A.v (from UniProt P08985 1-141)”, the binding result in test [1] and in test [2] was “binds” each time. As for “Polyadenylate-binding protein (from UniProt P21187 1-634)”, the binding entry in test [1] and in test [2] was “binds” each time.

As for “Stress-sensitive B (from UniProt Q26365 1-312)”, the binding entry in test [1] and in test [2] was “binds” each time. Take Syncrip: the binding entry in test [1] and in test [2] was “binds” in each case.

B1: Alan Shepard (protein, UniProt Q8MSV2 1-590)
chain: MHPRYSPAPPPQQQQQMGGPPHQQQGGGGGGGVSMRGPSNAQQLPPQIPRSQNYSNGSSSSAAAAPLTSRSAFPGAPLTASAVALKGALPQRPPAMTSPAAAAAGAALAAGAPYRGAASWTPQGYAPAAAAAAAAVAQQAAYRYTAPLPQPAYAAYTPHTATTPATTTVSFLSQPVDYYWYGQRVPTAASPSNTNSSSSSNTGSQSGTLSTSLSNTTNTNTNMGPNGTVQNQNQQGGEQLSKTNLYIRGLQQGTTDKDLVNMCAQYGTIISTKAILDKTTNKCKGYGFVDFEQPAFAECAVKGLQGKGVQAQMAKQQEQDPTNLYIANLPPHFKETDLEAMLSKYGQVVSTRILRDQQMNSKGVGFARMESREKCEQIIQMFNGNTIPGAKDPLLVKFADGGPKKKNLFKTPDPNARAWRDVSAEGIPVAYDPTMQQNGVSVNVGTPIGVPYSRFSAPQVGGYPVAGSQWIPGYMMTQVDDQTSYSPQYMQMAAAPPLGVTSYKPEAVNQVQPRGISMMVSGDTGVPYGTMMPQLATLQIGNSYISPTYPYYAPPPTIIPTMPMTDSEQASTAASPDEAYTQYPHQAAPK
B1: in test [2], the binding result is recorded as “binds”.

B2: Negative Elongation Factor A (protein, UniProt Q86NP2 1-1251)
chain: MANVRDSDTSLWLHNKLGTSNDSWINGSICSQLNKEVLRNIKECFPDLQTQVKLKLLLSFLHIPRRLVEEWKAELEEVIEVAGLDSELWVSMLAETMKTFPATSSLNTEISDYEDTRPIFIDMVNDLRKLVTKHSDLGMLPLECQYLNKNALISVVGQQPAPVKHFTLKRKPKSAQLRTELLHKSADAQSSLKKASAPTIPLRSRGMPRKMTDTTPLKGIPSRMPTTGFRSATVPGNAAQRPNLSRTPAGRKDGGIKLIEFTEQPLGYAAAKKRKREQQLEEQQKKQEQKQQQAAAAAAAAATAAASNAGDSSPTDAATASGGETPVTPTSANNSFEIKMEPQQLNQSAGSLEEPQDDEMSGKANMECDIETPEYATATLDFAQATSTSVADGQPGKPAVETKLKTPRTPKSAAKLNNNNNNNNNNSFNHTPKRIKQEIEIKSEEIIVPASIKLEKIETSPSTQRVSIQQQPPSLVQRTPHLLIRSSPQKRQNNGATTSAGTTTTTVGNTTIKMEKLDIKPMIRATGVSPSTSAGTTTTLLTPQQLRQAANPLANLPNNISVKITSAKAKAAAAAAATSSGSQTQSQQPQTLQVQQAPQQSHPPLLINSSTPVILASSPSAQRAKALALPSSSTSATTTTTIPSQAIKTMPLSQLKTATNSGPVIISQTIIQPAKRAQQQAGTSSAAAASQQQQQQQSQQQLLHQQIQQQTQQQAQLPQQPQQQQTQYILATPQQQPQQIQQQQQQQQPILPTLTSFSHSRPMPQTTTLYQATTPSGSGQTPTKILLKTSGSSSVVMTPLRQAQPQQATAVVSSNPPPLVATSAAVVSPGQTTLNIQNVQLPNRPVTIQPASQAAQQQHMQAQLQQQQPHPQHTIVANTTATQQPKLSQVLMQPTAAVGTSGVSALNVSPTSGKNKTIILTQKGVILRNIGGDMYQQIPISNVGNMQGLGGTTLMTTTAGPPSLVKTTPSSGVQLQQQQSGKQILPTLIPTSSLGGQHVIVQQQQPTNVIGNSQQQTIIRPVMTNVGGGLTTLPQGLTLIQRPGQQPQLVQVQAAPGSTQRTIITQSNTAAAASQQQPRQQQQQILVQHKPAPTLQQRLVTSTTSGGQGQQGNPNAGLPRTVQVQVQAQQQQQPQQQQATQQQSQQAPQRRGLSLSNEHVHKAHEMFRKANRVSRPDKALILGFMAGLRENPRPNNENVLVIKLGETEEKVQQDNGHTALCLVESHIRLDYNTGEWKTFQNYRLQDQSAAS
Take B2: the binding entry in test [1] and in test [2] was “binds” in each case.

B3: Squid (protein, UniProt Q08473 1-344)
chain: MAENKQVDTEINGEDFTKDVTADGPGSENGDAGAAGSTNGSSDNQSAASGQRDDDRKLFVGGLSWETTEKELRDHFGKYGEIESINVKTDPQTGRSRGFAFIVFTNTEAIDKVSAADEHIINSKKVDPKKAKARHGKIFVGGLTTEISDEEIKTYFGQFGNIVEVEMPFDKQKSQRKGFCFITFDSEQVVTDLLKTPKQKIAGKEVDVKRATPKPENQMMGGMRGGPRGGMRGGRGGYGGRGGYNNQWDGQGSYGGYGGGYGGYGAGGYGDYYAGGYYNGYDYGYDGYGYGGGFEGNGYGGGGGGNMGGGRGGPRGGGGPKGGGGFNGGKQRGGGGRQQRHQPY
As to B3, the binding result in test [1] is given as “binds”.

B4: Clueless (protein, UniProt A1ZAB5 1-1448)
chain: MALETEAKNSNATATGDATATATKASGKAKENNNTAGGKKNLNPNSNQQNSNQNLVNGNGTAADGPAAKKKGKKNRNKSPTEPTTEAVLSNGHAEKPTVVDAVEDNADTNANVEKPQEGGAPDAEADGDDIDLDALQDIGITVNISSPGADLLCVQLSSMELVQEIHQLLMDREETCHRTCFSLQLDNVTLDNFAELKSINNLEQGSTIKVVEEPYTMREARIHVRHVRDLLKNLDPADAYNGIDCTSLTYLNTITQGDLLDKKRTRPDSVDCTPPEYVTPGVSDPPILPLHPNVKNAKGPQALKVLTTSAWNPPPGPRKLHGDLMYLYVVTMEDKRFHISACSKGFFINQSTDDTFNPKPDNPSHLSHSLIDLLSHISPSFRRAFQTIQKRRTMRHAFERVATPYQVYQWAAPILEHTVDAIRAEDAFSSKLGYEEHIPGQTRDWNEELQTTRELPRKTLPERLLRERAIFKVHGDFVTAATRGAMAVIDGNVLAINPGEDTKMQMFIWNNIFFSMGFDVRDHYKELGGDAAAFVAPRYDLHGVRVYNAVDIEGLYTLGTVVVDYRGYRVTAQSIIPGILEREQEQSVVYGSIDFGKTVLSHPKYLELLRQAGKHLKILPHVVLNERDEPVELCSSVECKGIIGNDGRHYILDLLRTFPPDVNFLKLQDVQLSKELVDMGFPIEHRHKLCCLRQELLEAFIEDRHVNFIRIAAARLQQLTTIKQSEKSEANPVPALEGAEAASKVNGAEKPDDKEKKNEEEEKKERSTSGEARAAAIVNAIREAQSNVATSNEVQAAEVVKRACAAVGSLKEKEFDFRFNPDVFSPGIRHADGEEGTSLAKQKVLVQEAAEFLVLKQIPAFIKEHMSHSSSPIDGQSLTESLHSHGINVRYLGKVIKILSQMPRMDYLHRIAVLELIVRATKHIYYTYMQNTEPLHLSAAISHFLNCLLTNGPVNPAVSSEEAHKKRGNGGKHNKHKSSKGGKGQQQQQTTGNQNGSSSGSSNSSSASDWTLMTPRSLWQQIRKEAKVYWDWELDCDSIETAVSKYGILRISLMRAFCLKVGIQVLLREYNFESKHKPTFGDDDIVNVFPIVKHISPRATDAYNFYTTGQAKIQQGLFKEGYELISGALNLLNNVFGALHQENGSCLRMLARLSYLLGDAQDALAIQQRAVIMSERVNGMDHPSTILEYTHLSLYSFANGHVGMSLKLLYRARYLMVLICGEDHPEVALIDSNISLILHALGEYELSLRFIEHALKLNLKYFGDKDMHVALSYHLMARTQSCMGDFRSALNNEKETYSFYKSQLGENHEKTRDSAECLRLLTQQAVLLQRKMNDIYSSGKLTSDLPPIHITPPSMGSVLDMLNTINGILFVKISRKDIVKVRSEIEKHFKTDSTENEVNDAINSIVAAANNNGEAEDAVSKDIKEQPEAGKQLTNGDKAAATEATSS
For the molecule B4, the binding result in test [1] and in test [2] was “binds” in each case.

B5: Modulo (protein, UniProt P13469 1-542)
chain: MAQKKAVTVKGKKATNGEEKPLAKRVTKSTKVQEEETVVPQSPSKKSRKQPVKEVPQFSEEDESDVEEQNDEQPGDDSDFETEEAAGLIDDEAEEDEEYNSDDEEDDDDDELEPGEVSKSEGADEVDESDDDEEAPVEKPVSKKSEKANSEKSEENRGIPKVKVGKIPLGTPKNQIVFVTNLPNEYLHKDLVALFAKFGRLSALQRFTNLNGNKSVLIAFDTSTGAEAVLQAKPKALTLGDNVLSVSQPRNKEENNERTVVVGLIGPNITKDDLKTFFEKVAPVEAVTISSNRLMPRAFVRLASVDDIPKALKLHSTELFSRFITVRRISQESISRTSELTLVVENVGKHESYSSDALEKIFKKFGDVEEIDVVCSKAVLAFVTFKQSDAATKALAQLDGKTVNKFEWKLHRFERSTSGRAILVTNLTSDATEADLRKVFNDSGEIESIIMLGQKAVVKFKDDEGFCKSFLANESIVNNAPIFIEPNSLLKHRLLKKRLAIGQTRAPRKFQKDTKPNFGKKPFNKRPAQENGGKSFVKRARF
In the case of B5, the binding result in test [1] and in test [2] was “binds” each time.

The record behind these values is PMC5744976.
